From patent US20190374627A1, “TARGET PEPTIDES FOR CANCER THERAPY AND DIAGNOSTICS” (priority 2016, published 2019)

How the values were obtained:
Set-up in all cases: key: The presence of phosphopeptides in previously analyzed samples including leukemia, colorectal cancer, melanoma, ovarian cancer, breast cancer, and esophageal cancer is indicated by ✓
[1] = tested on: melanoma; assay: Presence of the phosphopeptide in previously analyzed melanoma samples
[2] = tested on: colorectal cancer; assay: Presence of the phosphopeptide in previously analyzed colorectal cancer samples
[3] = tested on: ovarian cancer; assay: Presence of the phosphopeptide in previously analyzed ovarian cancer samples
[4] = tested on: esophageal cancer; assay: Presence of the phosphopeptide in previously analyzed esophageal cancer samples
[5] = tested on: breast cancer; assay: Presence of the phosphopeptide in previously analyzed breast cancer samples
[6] = tested on: leukemia; assay: Presence of the phosphopeptide in previously analyzed leukemia samples

49 (RQISQDVKL; (4)...(4) The amino acid at this position is optionally phosphorylated; listed as Homo sapiens) [compound 49]
✓: Melanoma [1] | Colorectal [2] | Ovarian [3] | Esophageal [4]

54 (RTFSPTYGL; (4)...(4) The amino acid at this position is optionally phosphorylated; listed as Homo sapiens) [compound 54]
✓: Melanoma [1] | Ovarian [3] | Esophageal [4]

79 (APRKGSFSAL; (6)...(6) The amino acid at this position is optionally phosphorylated; listed as Homo sapiens) [compound 79]
✓: Melanoma [1] | Colorectal [2] | Breast [5]

90 (GPRPGSPSAL; (6)...(6) The amino acid at this position is optionally phosphorylated; listed as Homo sapiens) [compound 90]
✓: Melanoma [1] | Breast [5]

103 (KPRSPPRAL; (4)...(4) The amino acid at this position is optionally phosphorylated; listed as Homo sapiens) [compound 103]
✓: Melanoma [1] | Colorectal [2] | Leukemia [6] | Breast [5]

104 (KPRSPPRALVL; (4)...(4) The amino acid at this position is optionally phosphorylated; listed as Homo sapiens) [compound 104]
✓: Melanoma [1] | Breast [5]

112 (LPIFSRLSI; (8)...(8) The amino acid at this position is optionally phosphorylated; listed as Homo sapiens) [compound 112]
✓: Melanoma [1] | Colorectal [2] | Breast [5]

114 (LPRGSSPSVL; (5)...(5) The amino acid at this position is optionally phosphorylated; listed as Homo sapiens) [compound 114]
✓: Melanoma [1] | Colorectal [2] | Leukemia [6] | Breast [5]

120 (RARGISPIVF; (6)...(6) The amino acid at this position is optionally phosphorylated; listed as Homo sapiens) [compound 120]
✓: Melanoma [1] | Colorectal [2] | Leukemia [6] | Breast [5]

122 (RLLSPQQPAL; (4)...(4) The amino acid at this position is optionally phosphorylated; listed as Homo sapiens) [compound 122]
✓: Breast [5]

126 (RPASPAAKL; (4)...(4) The amino acid at this position is optionally phosphorylated; listed as Homo sapiens) [compound 126]
✓: Melanoma [1] | Colorectal [2] | Leukemia [6] | Breast [5]

129 (RPASPQRAQL; (4)...(4) The amino acid at this position is optionally phosphorylated; listed as Homo sapiens) [compound 129]
✓: Melanoma [1] | Colorectal [2] | Leukemia [6] | Breast [5]

134 (RPDSRLGKTEL; (4)...(4) The amino acid at this position is optionally phosphorylated; listed as Homo sapiens) [compound 134]
✓: Melanoma [1] | Colorectal [2] | Leukemia [6] | Breast [5]

139 (RPISPGLSY; (4)...(4) The amino acid at this position is optionally phosphorylated; listed as Homo sapiens) [compound 139]
✓: Melanoma [1] | Colorectal [2] | Breast [5] | Esophageal [4]

150 (RPNSPSPTAL; (4)...(4) The amino acid at this position is optionally phosphorylated; listed as Homo sapiens) [compound 150]
✓: Melanoma [1] | Leukemia [6] | Breast [5]

152 (RPQRATSNVF; (6)...(6) The amino acid at this position is optionally phosphorylated; listed as Homo sapiens) [compound 152]
✓: Melanoma [1] | Colorectal [2] | Leukemia [6] | Breast [5]

156 (RPRARSVDAL; (6)...(6) The amino acid at this position is optionally phosphorylated; listed as Homo sapiens) [compound 156]
✓: Melanoma [1] | Colorectal [2] | Breast [5] | Esophageal [4]

172 (RPRSLSSPTVTL; (6)...(6) The amino acid at this position is optionally phosphorylated; listed as Homo sapiens) [compound 172]
✓: Melanoma [1] | Breast [5]

180 (RPRSPRENSI; (4)...(4) The amino acid at this position is optionally phosphorylated; listed as Homo sapiens) [compound 180]
✓: Melanoma [1] | Colorectal [2] | Leukemia [6] | Breast [5]

189 (RPSSLPDL; (4)...(4) The amino acid at this position is optionally phosphorylated; listed as Homo sapiens) [compound 189]
✓: Melanoma [1] | Breast [5]

192 (RPTSRLNRL; (4)...(4) The amino acid at this position is optionally phosphorylated; listed as Homo sapiens) [compound 192]
✓: Melanoma [1] | Colorectal [2] | Leukemia [6] | Breast [5]

194 (RPVSPGKDI; (4)...(4) The amino acid at this position is optionally phosphorylated; listed as Homo sapiens) [compound 194]
✓: Melanoma [1] | Leukemia [6] | Breast [5]

199 (RPWSPAVSA; (4)...(4) The amino acid at this position is optionally phosphorylated; listed as Homo sapiens) [compound 199]
✓: Colorectal [2] | Leukemia [6] | Breast [5]

204 (SPASPKISL; (4)...(4) The amino acid at this position is optionally phosphorylated; listed as Homo sapiens) [compound 204]
✓: Melanoma [1] | Leukemia [6] | Breast [5]

209 (SPRERSPAL; (6)...(6) The amino acid at this position is optionally phosphorylated; listed as Homo sapiens) [compound 209]
✓: Melanoma [1] | Colorectal [2] | Breast [5]

211 (SPRSPGRSL; (4) The amino acid at this position is optionally phosphorylated; listed as Homo sapiens) [compound 211]
✓: Melanoma [1] | Leukemia [6] | Breast [5]

217 (TPRSPPLGLI; (4)...(4) The amino acid at this position is optionally phosphorylated; listed as Homo sapiens) [compound 217]
✓: Melanoma [1] | Colorectal [2] | Leukemia [6] | Breast [5]

221 (VPTSPKSSL; (4)...(4) The amino acid at this position is optionally phosphorylated; listed as Homo sapiens) [compound 221]
✓: Breast [5]

428 (RTHSLLLLL; (4)...(4) The amino acid at this position is optionally phosphorylated; listed as Homo sapiens) [compound 428]
✓: Colorectal [2] | Leukemia [6] | Ovarian [3] | Esophageal [4]
